B1: MOR12751 (antibody, V domains shown)
VH: QVQLQQSGPGLVKPSQTLSLTCAISGDSVSSNSAAWNWIRQSPSRGLEWLGVIYYRSKWYINYADSVKSRITINPDTSKNQFSLQLNSVTPEDTAVYYCAREGIVGGWFAYWGQGTLVTVSS
VL: DIELTQPPSVSVSPGQTASITCSGDKLGSKIAHWYQQKPGQAPVLVIYDDNERPSGIPERFSGSNSGNTATLTISGTQAEDEADYYCQSWDYLSWSVVFGGGTKLTVL
B2: MOR12757 (antibody, V domains shown)
VH: EVQLLESGGGLVQPGGSLRLSCAASGFTFSSYAMSWVRQAPGKGLEWVSFISSGGSETFYADSVKGRFTISRDNSKNTLYLQMNSLRAEDTAVYYCARVSYIYYYSWVLFDVWGQGTLVTVSS
VL: DIQMTQSPSSLSASVGDRVTITCRASQGIGTALNWYQQKPGKAPKLLIYDVSSLQSGVPSRFSGSGSGTDFTLTISSLQPEDFATYYCQQGLFLPFTFGQGTKVEIKR
B3: MOR12743 (antibody, V domains shown)
VH: QVQLVQSGAEVKKPGASVKVSCKASGYTFTSNFIHWVRQAPGQGLEWMGWISPYNGDTNYAQKFQGRVTMTRDTSISTAYMELSRLRSEDTAVYYCARESVYYGSDYGYNGMDIWGQGTLVTVSS
VL: DIELTQPPSVSVSPGQTASITCSGDNLGEEYVSWYQQKPGQAPVLVIYDDTKRPSGIPERFSGSNSGNTATLTISGTQAEDEADYYCASWDLWSVEVFGGGTKLTVLG
B4: MOR12753 (antibody, V domains shown)
VH: QVQLQQSGPGLVKPSQTLSLTCAISGDSVSSSSAAWNWIRQSPSRGLEWLGRIEYRSKWYNDYAVSVKSRITINPDTSKNQFSLQLNSVTPEDTAVYYCAREMYYYSGYGVFDVWGQGTLVTVSS
VL: B3 VL with N26A, E29G, S33H, T51D, A88S, W90F, L92T, S94T, V95S, E96Y
B5: MOR12746 (antibody, V domains shown)
VH: B3 VH
VL: B3 VL with A88S, D91T, L92H, W93F, V95N, E96I
B6: MOR12744 (antibody, V domains shown)
VH: B3 VH
VL: B3 VL with D91A, L92F, W93Y, V95S, E96Q
B7: MOR12745 (antibody, V domains shown)
VH: B3 VH
VL: B3 VL with A88S, S89A, D91A, L92T, E96A
B8: MOR12758 (antibody, V domains shown)
VH: EVQLVQSGAEVKKPGESLKISCKGSGYSFTDYWISWVRQMPGKGLEWMGAIDPTDSYTRYSPSFQGQVTISADKSISTAYLQWSSLKASDTAMYYCARWYTSHPYYEGRYPMDVWGQGTLVTVSS
VL: DIALTQPASVSGSPGQSITISCTGTSSDVGHYNYVSWYQQHPGKAPKLMIYGVTKRPSGVSNRFSGSKSGNTASLTISGLQAEDEADYYCASADEWPTLHVFGGGTKLTVLG
B9: MOR12755 (antibody, V domains shown)
VH: QVQLQQSGPGLVKPSQTLSLTCAISGDSVSSNSAAWNWIRQSPSRGLEWLGKTYYRSTWSNDYAESVKSRITINPDTSKNQFSLQLNSVTPEDTAVYYCAREMDSLTRSASSIAFDYWGQGTLVTVSS
VL: DIELTQPPSVSVSPGQTASITCSGDNLREHYVHWYQQKPGQAPVLVIYDDTERPSGIPERFSGSNSGNTATLTISGTQAEDEADYYCATRDWSNVVFGGGTKLTVLG
B10: MOR12756 (antibody, V domains shown)
VH: QVQLQQSGPGLVKPSQTLSLTCAISGDSVSDNSVAWNWIRQSPSRGLEWLGRIYYRSKWYNDYAVSVKSRITINPDTSKNQFSLQLNSVTPEDTAVYYCAREVLLFPARSYGTGMDVWGQGTLVTVSS
VL: DIELTQPPSVSVSPGQTASITCSGDNLPSKYVHWYQQKPGQAPVLVIYDDNERPSGIPERFSGSNSGNTATLTISGTQAEDEADYYCGVADMPRQMKVFGGGTKLTVLG
B11: MOR12740 (antibody, V domains shown)
VH: QVQLVQSGAEVKKPGSSVKVSCKASGGTFSIYAISWVRQAPGQGLEWMGGIIPILGIANYAQKFQGRVTITADESTSTAYMELSSLRSEDTAVYYCARDATHSYYHDYWGQGTLVTVSS
VL: DIALTQPASVSGSPGQSITISCTGTSSDVGSYETVSWYQQHPGKAPKVMIYEVSDRPSGVSNRFSGSKSGNTASLTISGLQAEDEADYYCGSFAHWGSWVFGGGTKLTVLG
B12: MOR12742 (antibody, V domains shown)
VH: QVQLVQSGAEVKKPGSSVKVSCKASGGTFSSYGISWVRQAPGQGLEWMGRIIPIFGTAYYAQKFQGRVTITADESTSTAYMELSSLRSEDTAVYYCARDMRYHDYWPYYYGSDQFDVWGQGTLVTVSS
VL: DIVLTQPPSVSGAPGQRVTISCSGSSSNIGSDIVSWYQQLPGTAPKLLIYYNNLRPSGVPDRFSGSKSGTSASLAITGLQAEDEADYYCQSWDWASLAMVFGGGTKLTVLG
B13: MOR12754 (antibody, V domains shown)
VH: EVQLLESGGGLVQPGGSLRLSCAASGFTFSDYAMTWVRQAPGKGLEWVSVISYDGSLTYYADSVKGRFTISRDNSKNTLYLQMNSLRAEDTAVYYCARDPGVWWLSYLDYWGQGTLVTVSS
VL: DIQMTQSPSSLSASVGDRVTITCRASQDIISYLAWYQQKPGKAPKLLIYGASNLQGGVPSRFSGSGSGTDFTLTISSLQPEDFAVYYCQQYMIAPPNTFGQGTKVEIKR
B14: MOR12741 (antibody, V domains shown)
VH: QVQLVQSGAEVKKPGSSVKVSCKASGGTFSSYAISWVRQAPGQGLEWMGMIMPEVGMADYAQKFQGRVTITADESTSTAYMELSSLRSEDTAVYYCARDFIAVGSLEIWHYYYGLDVWGQGTLVTVSS
VL: DIELTQPPSVSVSPGQTASITCSGDNIGEHYASWYQQKPGQAPVLVISYDNERPSGIPERFSGSNSGNTATLTISGTQAEDEADYYCQSWTSQKPDYVFGGGTKLTVLG
B15: MOR12759 (antibody, V domains shown)
VH: EVQLVQSGAEVKKPGESLKISCKGSGYSFNNYWIAWVRQMPGKGLEWMGFIYPSNSATQYSPSFQGQVTISADKSISTAYLQWSSLKASDTAMYYCARDNEYSDSYFDVWGQGTLVTVSS
VL: DIVLTQSPATLSLSPGERATLSCRASQIVSSYLAWYQQKPGQAPRLLIYDASSRATGIPARFSGSGSGTDFTLTISSLEPEDFAVYYCQQSVNFPTTFGQGTKVEIKR
B16: MOR12762 (antibody, V domains shown)
VH: B15 VH
VL: B15 VL with V92E, N93Q, F94V
B17: MOR12761 (antibody, V domains shown)
VH: B15 VH
VL: B15 VL with V85T, V92N, N93G, F94W, P95L, T96P

Substitutions are numbered along the chain they refer to. These are yes or no findings as the source states them, for the method shown.

17 molecules from US20190062422A1 can be followed below.

One experiment deals with lysozyme. Briefly: ELISA, purified chimeric IgG2a. On the technique in general: An ELISA detects its analyte on a solid surface through an enzyme-linked reagent.
Take B1: the binding result is “no binding”. Same read-out and setting: under B2 stands “no binding”; under B3, “no binding”. Same read-out and setting: under B4 stands “no binding”. Still for that read-out and setting: to B5 belongs “no binding”.

In the case of B6, the binding result was “no binding”. The same measure, in the same setting: to B7 belongs “no binding”. Same read-out and setting: under B8 stands “no binding”. On the same count and under the same terms, under B9 stands “no binding”; under B10, “no binding”; under B11, “no binding”.

On to B12, for which the binding entry is given as “no binding”.

B13: the binding entry was “no binding”. The same measure, in the same setting: under B14 stands “no binding”; under B15, “no binding”; under B16, “no binding”. On the same count and under the same terms, to B17 belongs “no binding”.

The target of a further experiment is lysozyme. Briefly: ELISA, purified chimeric human/mouse IgG2a on lysozyme (negative control antigen).
As to B1, the binding entry is reported as “no binding”. With B3, the binding result is listed as “no binding”. The same measure, in the same setting: under B5 stands “no binding”; under B6, “no binding”. Same read-out and setting: to B7 belongs “no binding”. Take B11: the binding result is given as “no binding”. Still for that read-out and setting: under B13 stands “no binding”; under B14, “no binding”. Same read-out and setting: under B15 stands “no binding”; under B16, “no binding”; under B17, “no binding”.
